The other results are listed elsewhere or left out.
Compound: CC1Cc2ccccc2N1C(=O)C1CCCN(C1)C(=O)CCl (mixture of isomers) [TRIM25 ligand 11 (diastereomer mixture)]
Assay: probe-labelled cysteine peptide fold change vs DMSO (competition) (log2 fold change); higher = less target engagement (more negative = stronger competition)
Conditions: THP-1, incubation time: 4 h
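Note: competitive chemoproteomic profiling in live THP-1 cells with an iodoacetamide desthiobiotin (IA-DTB) probe, comparing probe-labelled peptide intensities in compound-treated cells against DMSO-treated controls.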

Amino acid sequences for entries named in this document (tags omitted). A change or cut given only in a name is not applied to a line headed by its entry.
UniProt Q3KQV9: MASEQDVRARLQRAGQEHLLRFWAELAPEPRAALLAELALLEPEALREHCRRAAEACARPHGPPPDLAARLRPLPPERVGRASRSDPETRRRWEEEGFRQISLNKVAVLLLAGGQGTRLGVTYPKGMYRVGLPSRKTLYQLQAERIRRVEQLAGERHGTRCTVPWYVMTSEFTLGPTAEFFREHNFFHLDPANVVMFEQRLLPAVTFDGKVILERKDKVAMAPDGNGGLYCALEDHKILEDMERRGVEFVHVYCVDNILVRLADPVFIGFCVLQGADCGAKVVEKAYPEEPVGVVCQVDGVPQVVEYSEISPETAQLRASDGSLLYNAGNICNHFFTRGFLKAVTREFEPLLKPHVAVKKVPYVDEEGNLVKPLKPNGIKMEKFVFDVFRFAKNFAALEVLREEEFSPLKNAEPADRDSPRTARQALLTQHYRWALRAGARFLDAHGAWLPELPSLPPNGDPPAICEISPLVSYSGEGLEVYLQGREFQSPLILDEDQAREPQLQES
UniProt P04818: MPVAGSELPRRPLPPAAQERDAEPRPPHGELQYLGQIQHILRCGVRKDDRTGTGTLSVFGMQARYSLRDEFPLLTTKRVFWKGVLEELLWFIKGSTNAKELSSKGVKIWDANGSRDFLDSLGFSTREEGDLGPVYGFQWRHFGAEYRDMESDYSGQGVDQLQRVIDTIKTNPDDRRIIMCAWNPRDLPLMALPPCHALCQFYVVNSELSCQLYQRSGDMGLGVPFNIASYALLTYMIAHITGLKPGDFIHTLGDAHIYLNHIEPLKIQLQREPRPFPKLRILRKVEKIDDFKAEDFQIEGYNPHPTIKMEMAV
UniProt Q8IWV7: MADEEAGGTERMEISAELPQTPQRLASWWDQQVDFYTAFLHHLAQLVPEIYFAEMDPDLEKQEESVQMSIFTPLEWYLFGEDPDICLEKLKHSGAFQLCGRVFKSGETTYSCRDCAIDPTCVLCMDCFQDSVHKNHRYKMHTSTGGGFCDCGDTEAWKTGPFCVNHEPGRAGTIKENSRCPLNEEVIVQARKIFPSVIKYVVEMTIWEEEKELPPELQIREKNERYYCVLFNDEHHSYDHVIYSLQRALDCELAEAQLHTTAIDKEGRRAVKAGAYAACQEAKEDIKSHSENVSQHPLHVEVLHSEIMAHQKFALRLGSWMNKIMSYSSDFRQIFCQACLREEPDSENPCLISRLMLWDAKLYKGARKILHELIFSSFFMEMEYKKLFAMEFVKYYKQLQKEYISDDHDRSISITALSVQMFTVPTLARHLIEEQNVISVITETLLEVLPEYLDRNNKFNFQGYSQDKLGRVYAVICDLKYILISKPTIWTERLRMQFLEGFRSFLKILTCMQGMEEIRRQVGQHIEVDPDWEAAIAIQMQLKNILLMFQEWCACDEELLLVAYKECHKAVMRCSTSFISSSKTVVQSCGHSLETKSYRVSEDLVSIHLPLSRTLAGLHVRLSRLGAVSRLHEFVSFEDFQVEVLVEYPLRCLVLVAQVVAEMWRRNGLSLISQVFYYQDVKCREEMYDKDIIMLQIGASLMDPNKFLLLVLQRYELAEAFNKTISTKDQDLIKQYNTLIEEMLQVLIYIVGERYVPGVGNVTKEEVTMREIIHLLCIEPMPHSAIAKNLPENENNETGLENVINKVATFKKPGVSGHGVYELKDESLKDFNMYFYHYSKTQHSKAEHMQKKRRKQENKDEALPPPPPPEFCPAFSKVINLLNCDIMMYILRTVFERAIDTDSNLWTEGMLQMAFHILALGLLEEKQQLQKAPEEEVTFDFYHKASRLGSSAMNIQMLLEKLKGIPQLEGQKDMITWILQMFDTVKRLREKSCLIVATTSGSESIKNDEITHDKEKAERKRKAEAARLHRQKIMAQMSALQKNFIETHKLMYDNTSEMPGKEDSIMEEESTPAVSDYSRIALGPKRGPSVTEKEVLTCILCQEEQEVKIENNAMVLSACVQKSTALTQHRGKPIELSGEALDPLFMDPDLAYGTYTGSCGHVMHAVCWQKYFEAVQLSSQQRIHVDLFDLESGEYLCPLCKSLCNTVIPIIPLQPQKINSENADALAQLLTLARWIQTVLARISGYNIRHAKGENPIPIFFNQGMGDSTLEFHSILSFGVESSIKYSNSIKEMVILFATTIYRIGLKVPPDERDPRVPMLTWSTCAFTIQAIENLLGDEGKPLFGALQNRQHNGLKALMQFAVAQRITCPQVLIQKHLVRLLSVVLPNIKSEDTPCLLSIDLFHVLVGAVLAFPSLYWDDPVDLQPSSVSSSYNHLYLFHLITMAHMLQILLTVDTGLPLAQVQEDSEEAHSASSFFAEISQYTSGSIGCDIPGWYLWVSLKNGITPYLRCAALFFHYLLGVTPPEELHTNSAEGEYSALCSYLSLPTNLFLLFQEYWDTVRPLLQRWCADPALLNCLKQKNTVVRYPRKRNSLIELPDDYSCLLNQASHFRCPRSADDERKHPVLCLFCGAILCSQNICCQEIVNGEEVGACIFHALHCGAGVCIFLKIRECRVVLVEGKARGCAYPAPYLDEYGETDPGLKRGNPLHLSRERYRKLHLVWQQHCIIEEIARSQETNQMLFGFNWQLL
UniProt O43396: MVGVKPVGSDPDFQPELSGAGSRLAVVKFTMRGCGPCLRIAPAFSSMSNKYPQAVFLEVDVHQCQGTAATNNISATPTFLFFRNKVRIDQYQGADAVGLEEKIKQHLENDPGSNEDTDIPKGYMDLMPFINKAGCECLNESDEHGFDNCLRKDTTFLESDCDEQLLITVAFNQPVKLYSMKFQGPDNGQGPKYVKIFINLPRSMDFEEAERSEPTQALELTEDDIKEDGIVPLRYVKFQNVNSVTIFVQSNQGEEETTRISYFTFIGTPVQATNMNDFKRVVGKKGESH
UniProt Q8NBS9: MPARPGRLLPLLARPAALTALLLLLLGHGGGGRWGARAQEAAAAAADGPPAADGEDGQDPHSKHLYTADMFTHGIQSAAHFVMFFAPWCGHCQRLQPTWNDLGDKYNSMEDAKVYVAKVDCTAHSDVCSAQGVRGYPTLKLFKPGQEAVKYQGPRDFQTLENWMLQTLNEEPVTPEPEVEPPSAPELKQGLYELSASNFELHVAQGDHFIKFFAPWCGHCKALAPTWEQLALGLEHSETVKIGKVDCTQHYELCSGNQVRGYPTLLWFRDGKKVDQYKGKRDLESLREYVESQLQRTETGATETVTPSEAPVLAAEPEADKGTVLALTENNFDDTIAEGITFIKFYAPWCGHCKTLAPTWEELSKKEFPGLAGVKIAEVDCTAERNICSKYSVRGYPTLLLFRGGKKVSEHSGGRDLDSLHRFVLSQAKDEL
UniProt Q9NZ09: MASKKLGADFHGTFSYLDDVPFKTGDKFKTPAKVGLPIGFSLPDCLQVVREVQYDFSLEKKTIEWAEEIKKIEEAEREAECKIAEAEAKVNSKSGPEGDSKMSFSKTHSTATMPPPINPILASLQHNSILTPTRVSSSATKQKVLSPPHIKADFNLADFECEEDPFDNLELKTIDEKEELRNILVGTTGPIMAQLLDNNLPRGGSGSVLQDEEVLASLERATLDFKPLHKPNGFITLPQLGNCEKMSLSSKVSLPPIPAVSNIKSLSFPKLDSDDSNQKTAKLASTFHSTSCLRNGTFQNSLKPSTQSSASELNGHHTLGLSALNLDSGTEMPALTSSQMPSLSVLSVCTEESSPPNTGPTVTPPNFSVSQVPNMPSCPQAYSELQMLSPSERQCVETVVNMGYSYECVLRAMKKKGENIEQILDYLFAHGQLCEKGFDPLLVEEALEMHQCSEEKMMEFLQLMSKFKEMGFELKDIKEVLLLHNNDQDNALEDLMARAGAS
UniProt P22314: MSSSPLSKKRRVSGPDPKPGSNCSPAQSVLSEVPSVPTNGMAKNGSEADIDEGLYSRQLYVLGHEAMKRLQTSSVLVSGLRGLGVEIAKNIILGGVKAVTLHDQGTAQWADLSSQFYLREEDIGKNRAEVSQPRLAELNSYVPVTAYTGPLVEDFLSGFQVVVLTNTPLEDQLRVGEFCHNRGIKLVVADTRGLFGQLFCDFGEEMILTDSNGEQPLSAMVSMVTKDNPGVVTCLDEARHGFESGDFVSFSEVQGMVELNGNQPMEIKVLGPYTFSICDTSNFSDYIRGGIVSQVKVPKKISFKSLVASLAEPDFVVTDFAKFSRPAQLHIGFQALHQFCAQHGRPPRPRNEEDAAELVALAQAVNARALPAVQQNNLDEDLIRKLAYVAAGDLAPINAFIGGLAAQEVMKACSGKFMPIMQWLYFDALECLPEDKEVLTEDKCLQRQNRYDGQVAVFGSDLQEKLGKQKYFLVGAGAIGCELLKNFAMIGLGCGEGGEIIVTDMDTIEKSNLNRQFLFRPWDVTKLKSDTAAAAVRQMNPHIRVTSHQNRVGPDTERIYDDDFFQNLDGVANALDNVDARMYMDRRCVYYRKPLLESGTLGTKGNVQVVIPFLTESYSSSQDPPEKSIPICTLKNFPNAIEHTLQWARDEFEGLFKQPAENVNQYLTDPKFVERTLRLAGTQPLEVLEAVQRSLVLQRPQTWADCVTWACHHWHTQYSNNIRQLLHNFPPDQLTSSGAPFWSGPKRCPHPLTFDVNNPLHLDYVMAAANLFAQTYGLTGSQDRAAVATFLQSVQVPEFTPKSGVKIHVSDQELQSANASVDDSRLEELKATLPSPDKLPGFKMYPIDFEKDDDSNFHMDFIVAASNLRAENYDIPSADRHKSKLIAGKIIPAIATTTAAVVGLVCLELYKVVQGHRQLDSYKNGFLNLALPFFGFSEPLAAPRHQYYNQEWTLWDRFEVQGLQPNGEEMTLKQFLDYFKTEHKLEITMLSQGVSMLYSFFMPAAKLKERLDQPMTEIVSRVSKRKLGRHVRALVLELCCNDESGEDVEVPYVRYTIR
UniProt Q9BZL1: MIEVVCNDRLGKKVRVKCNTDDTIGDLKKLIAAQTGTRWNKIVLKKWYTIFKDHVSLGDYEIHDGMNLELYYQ
UniProt Q9H3M7: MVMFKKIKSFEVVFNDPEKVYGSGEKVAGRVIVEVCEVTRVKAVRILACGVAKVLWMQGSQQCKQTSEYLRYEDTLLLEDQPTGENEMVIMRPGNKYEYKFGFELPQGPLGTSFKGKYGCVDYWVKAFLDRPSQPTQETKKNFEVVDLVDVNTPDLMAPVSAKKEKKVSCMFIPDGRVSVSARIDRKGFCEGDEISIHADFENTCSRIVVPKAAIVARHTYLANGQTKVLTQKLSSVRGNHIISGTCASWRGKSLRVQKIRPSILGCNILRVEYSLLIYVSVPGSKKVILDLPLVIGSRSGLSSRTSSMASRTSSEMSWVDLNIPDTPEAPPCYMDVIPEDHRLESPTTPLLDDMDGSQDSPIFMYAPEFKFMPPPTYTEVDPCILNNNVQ
UniProt Q96S82: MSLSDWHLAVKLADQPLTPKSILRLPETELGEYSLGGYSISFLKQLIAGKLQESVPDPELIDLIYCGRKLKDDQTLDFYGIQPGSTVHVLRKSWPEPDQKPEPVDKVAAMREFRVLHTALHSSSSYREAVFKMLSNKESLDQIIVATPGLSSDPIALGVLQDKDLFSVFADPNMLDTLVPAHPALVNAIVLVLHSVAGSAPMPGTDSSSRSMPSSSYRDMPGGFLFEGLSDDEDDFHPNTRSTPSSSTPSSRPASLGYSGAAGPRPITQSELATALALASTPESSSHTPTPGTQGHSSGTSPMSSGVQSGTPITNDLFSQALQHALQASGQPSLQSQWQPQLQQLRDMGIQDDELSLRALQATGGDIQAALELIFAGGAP
UniProt P10599: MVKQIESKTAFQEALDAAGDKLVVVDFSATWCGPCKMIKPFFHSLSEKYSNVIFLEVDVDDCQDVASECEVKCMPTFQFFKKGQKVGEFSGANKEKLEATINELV

Row | Target | probe-labelled cysteine peptide fold change (10 µM) | probe-labelled cysteine peptide fold change (50 µM)
1 | UAP1L1_Q3KQV9_231_VAMAPDGNGGLYCALEDHK (UniProt Q3KQV9) | -0.00674 | -0.0205
2 | UBASH3B_Q8TF42_468_LVGEALLESNTIIDHVYCSPSLR (UniProt Q8TF42) | 0.112 | -0.129
3 | UBN1_Q9NPG3_467_YQDECQAHTQAK (UniProt Q9NPG3) | 0.0929 | 0.00441
4 | TYMS_P04818_180_IIMCAWNPR (UniProt P04818) | 0.108 | 0.434
5 | UBR1_Q8IWV7_1603_NSLIELPDDYSCLLNQASHFR (UniProt Q8IWV7) | -0.017 | -0.181
6 | UBR2_Q8IWV8_837_GMYELKPECAK (UniProt Q8IWV8) | -0.0983 | -0.214
7 | TXNL1_O43396_135+137+149_AGCECLNESDEHGFDNCLR (UniProt O43396) | -0.02 | -0.634
8 | TXNDC5_Q8NBS9_254_VDCTQHYELCSGNQVR (UniProt Q8NBS9) | 0.112 | -0.0342
9 | UBAP1_Q9NZ09_243_ATLDFKPLHKPNGFITLPQLGNCEK (UniProt Q9NZ09) | -0.241 | -0.382
10 | UBA1_P22314_179_VGEFCHNR (UniProt P22314) | -0.000646 | 0.0721
11 | UBR1_Q8IWV7_1369_ITCPQVLIQK (UniProt Q8IWV7) | -5.95e-05 | -0.0534
12 | UBAP1_Q9NZ09_434_KGENIEQILDYLFAHGQLCEK (UniProt Q9NZ09) | -0.0198 | 0.0814
13 | UBA6_A0AVT1_156_YQCVVLTEMK | 0.0118 | 0.0499
14 | UBL5_Q9BZL1_18_CNTDDTIGDLKK (UniProt Q9BZL1) | -0.0793 | -0.00425
15 | UBA1_P22314_494_NFAMIGLGCGEGGEIIVTDMDTIEK (UniProt P22314) | -0.202 | -0.103
16 | TXNIP_Q9H3M7_170_KVSCMFIPDGR (UniProt Q9H3M7) | 0.0891 | 0.294
17 | UBL7_Q96S82_66_LQESVPDPELIDLIYCGR (UniProt Q96S82) | -0.0978 | -0.264
18 | UBA6_A0AVT1_174_KINDFCR | -0.0527 | 0.0385
19 | UBA7_P41226_289_SLDTALLQPHVVAQSSQEVHHAHCLHQAFCALHK (UniProt P41226) | -0.108 | -0.293
20 | TXN_P10599_73_CMPTFQFFK (UniProt P10599) | -0.14 | -0.279
21 | TXNDC5_Q8NBS9_217_FFAPWCGHCK (UniProt Q8NBS9) | -0.073 | -0.389
22 | UBR5_O95071_2084_CLMEVTVDR (UniProt O95071) | -0.0492 | -0.103

Two entries picked at random from the list so far:
Row | Target | probe-labelled cysteine peptide fold change (10 µM) | probe-labelled cysteine peptide fold change (50 µM)
9 | UBAP1_Q9NZ09_243_ATLDFKPLHKPNGFITLPQLGNCEK (UniProt Q9NZ09) | -0.241 | -0.382
13 | UBA6_A0AVT1_156_YQCVVLTEMK | 0.0118 | 0.0499

— the supplement of paper PMC12067093, “Discovery and optimisation of a covalent ligand for TRIM25 and its application to targeted protein ubiquitination” (Chemical Science, 2025)
